Results are given in words; binding and its absence hold for the method and conditions named. In cells and extracts the contact can be indirect. Some results given as binding are weak or reduced against the parent protein; the word gives no strength.
Columns and labels:
[1] = target: T1, GEF16 (ARHGEF16), endogenous in C33A-derived cells (human (endogenous in C33A)) (UniProt Q5VV41); experiment: co-IP; anti-GEF16 and protein G-sepharose, 48 h, 4 C, lysate of C33AT16 E6 cells (stably express HPV16 E6) treated with 10 uM MG132 for 4 h; blots for Tip-1 and Cdc42
T1 sequence: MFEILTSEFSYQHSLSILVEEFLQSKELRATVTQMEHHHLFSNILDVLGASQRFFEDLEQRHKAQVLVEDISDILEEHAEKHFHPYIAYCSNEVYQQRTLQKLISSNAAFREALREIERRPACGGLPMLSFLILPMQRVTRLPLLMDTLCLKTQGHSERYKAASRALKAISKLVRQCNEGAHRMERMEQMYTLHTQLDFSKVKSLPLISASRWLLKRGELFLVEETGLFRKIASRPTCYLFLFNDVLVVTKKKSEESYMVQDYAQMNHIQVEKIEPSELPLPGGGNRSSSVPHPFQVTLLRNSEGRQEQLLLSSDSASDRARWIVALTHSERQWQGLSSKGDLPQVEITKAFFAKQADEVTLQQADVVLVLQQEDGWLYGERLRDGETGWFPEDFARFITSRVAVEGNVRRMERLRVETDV

Chains of the proteins cited; added tags and fusions are not shown. Lines headed by an entry give the natural chain unless they say otherwise; changes in a name come on top.
UniProt P60953: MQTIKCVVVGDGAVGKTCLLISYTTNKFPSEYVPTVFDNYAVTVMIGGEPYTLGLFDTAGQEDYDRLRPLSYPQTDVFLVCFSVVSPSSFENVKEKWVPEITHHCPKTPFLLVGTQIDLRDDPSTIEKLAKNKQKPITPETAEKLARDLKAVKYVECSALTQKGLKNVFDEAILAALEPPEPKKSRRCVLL

[2] = target: T1, GEF16 (ARHGEF16), endogenous in C33A-derived cells (human (endogenous in C33A)); experiment: co-IP; anti-GEF16 and protein G-sepharose, 48 h, 4 C, lysate of C33AV vector control cells treated with 10 uM MG132 for 4 h; blots for Tip-1 and Cdc42

“Cdc42, endogenous in C33A-derived cells (from UniProt P60953 1-191)” was tested, and the binding [1] was “binds”.

B1: Tip-1, endogenous in C33A-derived cells (protein, UniProt O14907 1-124)
chain: MSYIPGQPVTAVVQRVEIHKLRQGENLILGFSIGGGIDQDPSQNPFSEDKTDKGIYVTRVSEGGPAEIAGLQIGDKIMQVNGWDMTMVTHDQARKRLTKRSEEVVRLLVTRQSLQKAVQQSMLS
In the case of B1, the binding [2] is reported as “binds” and the binding [1] is reported as “binds”.

From paper PMC3031889
